The assay is described as follows: qHTS Assay for Lipid Storage Modulators in Drosophila S3 Cells.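 On cell number change: cells counted by Cell Tracker Red CMTPX staining in the red channel.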 The following applies: BODIPY lipid droplet fluorescence, 18-24 h; for cell number change: measured here: cell count max response, cells fed with added oleic acid. The procedure, abridged:
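Drosophila S3 cells got compounds at several concentrations plus oleic acid (400 uM solution). Laser-scanning cytometry with 488 nm excitation read lipid droplets at 500-530 nm and cells at 575-640 nm. Percent activity was relative to 20 uM Triacsin C.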
Background: qHTS replaces the single test concentration by a dilution series.

Setting [1] is: measured here: lipid fluorescence (Fed channel) AC50, cells fed with added oleic acid.
The mark [2] stands for this setting: measured here: cell number channel AC50, cells fed with added oleic acid.

Structures are written as SMILES. This is one part of the list. These are further read-outs of the screen, such as a control signal, another cell line or another target. No call is given for them. Most of these compounds were active or inconclusive in the main read-out, so they are no random draw. The note in brackets gives the kind of curve behind each potency; many fits are weak.

One may read the AC50 as the concentration at which the activity in the assay is half-maximal. As to `O=C(Cn1ccc(NC(=O)OCc2ccccc2)nc1=O)NCCCN1CCCC1=O`, the cell number change turned out to be 12.7%. Moreover, the half-maximal activity concentration (AC50) under setting [1] is 0.13 µM [rising, full curve, poor fit].
Turning to `N=c1c(S(=O)(=O)c2ccccc2)cc2c(=O)n3ccccc3nc2n1CC1CCCO1` (configuration not stated), the cell number change amounted to 22.1%. In addition, under setting [1], the AC50 was 0.461 µM [rising, full curve].
For `CC(C)COc1ccc(C(=O)Nc2ccc(NC(=O)c3ccco3)cc2)cc1`, the cell number change turned out to be 11.5%. For the same compound, under setting [1], the half-maximal activity concentration (AC50) is 5.17 µM [falling, single point].
Consider `COC(=O)c1ccccc1C(=O)N1CCCC(CCC(=O)NCc2ccc(F)c(F)c2)C1` (configuration not stated), for which the cell number change was -7.32%. The AC50 under setting [1] was 32.6 µM [falling, single point].
Turning to `C=CCn1c(Cc2ccc(OC)cc2)nnc1SCc1nc2ccccc2c(=O)[nH]1`, the cell number change was 5.39%. In addition, under setting [1], the AC50 was 0.461 µM [rising, partial curve, poor fit].
Regarding `O=C(NCCc1ccccc1)c1ccc(-c2ccc(F)cc2)o1`, the cell number change was -37.5%. Besides, the AC50 under setting [2] is 29.1 µM [falling, single point]. Besides, the AC50 under setting [1] is 29.1 µM [falling, single point].
Turning to `O=C(NCCc1cscn1)C1CCC(=O)N(Cc2ccc(Cl)cc2)C1` (configuration not stated), the cell number change was found to be 20.5%. The AC50 under setting [1] is 5.17 µM [falling, single point].
As for `Cn1ncc(Cl)c1C(=O)N1CCc2ccccc21`, the cell number change was -30.5%. For the same compound, the AC50 under setting [2] was 18.4 µM [falling, single point].
In the case of `CC(=O)Nc1ccc(NC(=O)C(C)OC(=O)c2oc3ccccc3c2C)cc1` (configuration not stated), the cell number change amounted to 12.2%. In addition, under setting [1], the concentration at half-maximal activity (AC50) was 20.6 µM [falling, single point].
For the compound `CCCCc1c(C)c(C#N)c2nc3ccccc3n2c1NCCN(C)C`, the cell number change came to 37.5%. Further, the half-maximal activity concentration (AC50) under setting [2] is 1.46 µM [rising, full curve].
On to `CN(/C(=N\S(=O)(=O)c1ccccc1)c1ccccc1)c1ccc(O)cc1`, for which the cell number change was -15.2%. For the same compound, under setting [1], the AC50 is 16.4 µM [falling, single point].
On to `CCCCn1c(N)c(N(CC)C(=O)c2cc(OC)cc(OC)c2)c(=O)[nH]c1=O`, for which the cell number change came to 32.2%. For the same compound, under setting [2], the AC50 was 29.1 µM [rising, single point].
For `O=C(Nc1cccc([N+](=O)[O-])c1)c1cccc(C(=O)Nc2cccc([N+](=O)[O-])c2)c1`, the cell number change was -34.1%. Moreover, the AC50 under setting [2] was 25.9 µM [falling, single point]. The AC50 under setting [1] was 32.6 µM [falling, single point].
As to `O=C(Nc1ccc2c(c1)CCC2)c1cnn2c1NC(c1ccco1)CC2C(F)(F)F` (configuration not stated), the cell number change is -91.3%. The AC50 under setting [2] was 18.4 µM [falling, single point]. Further, the AC50 under setting [1] is 29.1 µM [falling, single point].
For `Cc1ccc(/C=N/NC(=O)c2ccoc2C)o1`, the cell number change was -45.8%. The AC50 under setting [2] is 10.3 µM [falling, partial curve]. Further, the half-maximal activity concentration (AC50) under setting [1] was 0.651 µM [falling, partial curve, poor fit].
Consider `N#C/C(=C\c1c[nH]c2ccc(Br)cc12)c1ccccn1`, for which the cell number change was 81.1%. The AC50 under setting [2] is 20.6 µM [rising, single point].
Turning to `CCOC(=O)Cn1nc(C)n(-c2ccc(Cl)cc2)c1=O`, the cell number change was determined as 12.4%. For the same compound, the AC50 under setting [1] is 0.794 µM [falling, single point].
As to `CCc1cc(C(=O)N/N=C/c2ccc(O)cc2O)c2ccccc2n1`, the cell number change was -27.6%. Moreover, the AC50 under setting [1] is 29.1 µM [falling, single point].
As to `O=c1oc(Nc2cccc(Cl)c2)nc2ccccc12`, the cell number change is -37.1%. Further, under setting [2], the AC50 is 4.61 µM [falling, full curve].
Regarding `CCOc1ccc(NC(=O)N2CCC(n3nnc4cc(C)ccc43)CC2)cc1`, the concentration at half-maximal activity (AC50) was 3.26 µM [rising, partial curve] under setting [2] and 5.17 µM [rising, partial curve] under setting [1].
As to `OC(C#CCN1CCCC1)(c1ccccc1)c1cccc(F)c1` (configuration not stated), the cell number change came to 9.28%.
Consider `CCc1cc2c(SCC(=O)c3cccs3)ncnc2s1`, for which the cell number change turned out to be 59.8%. In addition, the AC50 under setting [2] is 29.1 µM [rising, single point]. The concentration at half-maximal activity (AC50) under setting [1] was 0.651 µM [falling, single point].
As to `Cc1c(C(=O)Nc2c(F)cc(F)cc2Br)sc2ncn(CC(=O)N3CCCC3)c(=O)c12`, the cell number change is -15.5%.
For the compound `O=C(NCCn1cc(SCc2ccccc2F)c2ccccc21)c1c(F)cccc1F`, the cell number change is -32.7%. For the same compound, the half-maximal activity concentration (AC50) under setting [2] was 4.61 µM [falling, full curve, poor fit]. In addition, the half-maximal activity concentration (AC50) under setting [1] was 8.2 µM [falling, partial curve].
For the compound `CCOC(=O)c1nn(-c2ccccc2)c2nc(Nc3ccccc3)cc(=O)n12`, the cell number change turned out to be 13.2%. Further, under setting [2], the AC50 is 3.26 µM [rising, single point].
On to `CC(OC(=O)C1CCN(S(=O)(=O)c2ccc3c(c2)OCCO3)CC1)C(=O)N(C)c1ccccc1` (configuration not stated), for which the cell number change is 19.2%. The half-maximal activity concentration (AC50) under setting [2] was 7.31 µM [rising, partial curve, poor fit].
On to `N#C/C(C(=O)c1ccccc1)=C1/SC=C(N)N1c1ccccc1`, for which the cell number change is -88.1%. Besides, the half-maximal activity concentration (AC50) under setting [2] is 29.1 µM [falling, single point]. The AC50 under setting [1] is 9.2 µM [falling, partial curve].
In the case of `CC(=O)N1CCN(C(=O)c2cccc(S(=O)(=O)Nc3ccc(C)cc3)c2)CC1`, the cell number change is 8.13%.
In the case of `CC(C)(C)C(=O)CSc1nc(N)cc(=O)[nH]1`, the cell number change was -48.5%. Under setting [2], the concentration at half-maximal activity (AC50) was 16.4 µM [falling, single point]. Further, the AC50 under setting [1] was 18.4 µM [falling, single point].
`Cc1ccc(S(=O)(=O)c2nc(S(C)(=O)=O)sc2N2CCC(O)CC2)cc1`: the cell number change was -21.1%.
Turning to `COc1cccc(OCc2nnc(SCc3cc(=O)[nH]c4ccccc34)o2)c1`, the AC50 under setting [1] is 3.26 µM [rising, partial curve, poor fit].
With `Cc1cc(NC(=O)CSc2nc3c(sc4ccccc43)c(=O)n2CCc2ccccc2)n[nH]1`, the cell number change is 1.56%. In addition, the AC50 under setting [2] is 0.731 µM [rising, full curve]. Besides, the AC50 under setting [1] was 0.517 µM [rising, full curve].
Turning to `COc1ccccc1C1=NOC(CN2C(=O)c3ccccc3S2(=O)=O)C1` (configuration not stated), the cell number change amounted to 52.4%. Moreover, the AC50 under setting [2] is 29.1 µM [rising, single point]. The AC50 under setting [1] is 29.1 µM [rising, single point].
Regarding `CCN1C(=O)/C(=C2\SC(=S)N(NC(=O)c3cccnc3)C2=O)c2ccccc21`, the cell number change was -75.4%. Moreover, the half-maximal activity concentration (AC50) under setting [2] was 23.1 µM [falling, single point]. Also, the AC50 under setting [1] was 23.1 µM [falling, single point].
On to `Cc1cc(NCc2ccccc2)nc2ccccc12`, for which the cell number change was -31.8%. In addition, the AC50 under setting [2] is 29.1 µM [falling, single point]. Besides, the half-maximal activity concentration (AC50) under setting [1] was 32.6 µM [falling, single point].
Take `C/C=N\NC(=O)CNC(=O)CNC(=O)c1ccccc1`: the AC50 under setting [2] was 3.66 µM [rising, single point].
Consider `COc1cc([N+](=O)[O-])ccc1NC(=O)Nc1nc2c(s1)CCCC2`, for which the cell number change worked out at 15.1%. For the same compound, the AC50 under setting [1] was 0.291 µM [rising, full curve].
`O=S(=O)(NCCOc1cccc2cccnc12)c1ccc(F)cc1`: the cell number change was -0.992%. Also, the half-maximal activity concentration (AC50) under setting [1] is 11.6 µM [rising, partial curve].
As to `CN1c2ccccc2C(C)(C)C12C=Cc1cc(O)ccc1O2` (configuration not stated), the cell number change is -79.4%. Also, under setting [2], the AC50 is 25.9 µM [falling, partial curve]. Moreover, the AC50 under setting [1] is 20.6 µM [falling, partial curve].
On to `CC(=O)N(c1ccc(C(F)(F)F)cc1)S(=O)(=O)c1ccc(N2C(=O)CCC2=O)cc1`, for which the cell number change amounted to 17%.
On to `Cc1cc(C(=O)COc2cc(F)ccc2[N+](=O)[O-])c(C)n1C1CC1`, for which the cell number change was determined as 19.9%. The half-maximal activity concentration (AC50) under setting [1] was 29.1 µM [rising, single point].
On to `O=C(Nc1nc2cc3c(cc2s1)OCCO3)c1ccc([N+](=O)[O-])o1`, for which the cell number change was -13%. Further, under setting [1], the AC50 is 8.2 µM [falling, partial curve].
Regarding `CC(C)CN(C(=O)CCNC(=O)c1ccc(Cl)cc1)c1c(N)n(CC(C)C)c(=O)[nH]c1=O`, the cell number change amounted to 2.58%. Besides, the AC50 under setting [1] is 0.731 µM [falling, full curve, poor fit].
In the case of `COc1ccc(-c2cn3c(C)c(C(=O)N4CCc5ccccc5C4)sc3n2)cc1`, the cell number change is -40.9%. Moreover, the half-maximal activity concentration (AC50) under setting [2] is 6.51 µM [falling, full curve, poor fit].
In the case of `CC1=C(C(=O)N2CCOCC2)C(c2cccc3ccccc23)NC(=S)N1` (configuration not stated), the cell number change was 25.2%. Further, the AC50 under setting [1] was 0.82 µM [rising, full curve, poor fit].
With `CCOC(=O)C1=C(N)c2ccccc2CC1C(C)C` (configuration not stated), the cell number change was -92.5%. The half-maximal activity concentration (AC50) under setting [2] is 29.1 µM [falling, single point].
In the case of `COc1ccc(-n2nc(C(=O)NCC(=O)Nc3cccc(Cl)c3)c3ccccc3c2=O)cc1`, the cell number change was 19.7%. Further, the AC50 under setting [1] is 2.91 µM [falling, full curve, poor fit].
As to `COc1ccc(NS(=O)(=O)c2ccc(NC(=O)c3ccccn3)cc2)cc1`, the cell number change came out at 22.5%. In addition, the half-maximal activity concentration (AC50) under setting [1] was 0.731 µM [rising, full curve].
Consider `Cc1cc(C)c(C)c(S(=O)(=O)N2CCN(C(=O)c3ccccc3OCc3c(C)noc3C)CC2)c1C`, for which the cell number change is -9.46%. In addition, under setting [2], the concentration at half-maximal activity (AC50) is 0.0231 µM [falling, full curve, poor fit].
Take `CCCCCCCCC/C(=N\O)c1ccccn1`: the cell number change was -29.4%. For the same compound, the concentration at half-maximal activity (AC50) under setting [1] was 29.1 µM [falling, single point].
On to `Cc1ccc(CNc2nc3ccccc3s2)s1`, for which the cell number change is -0.926%.
With `CC(=O)N1CCOc2ccc(S(=O)(=O)NCc3ccc(F)cc3)cc21`, the cell number change turned out to be 5.11%. For the same compound, the AC50 under setting [1] was 0.731 µM [rising, single point].
Take `O=C(CCCN1C(=O)S/C(=C\C=C\c2ccccc2)C1=O)Nc1ccc(C(=O)O)cc1`: the cell number change is 14.1%.
For the compound `O=C(O)c1ccccc1Sc1ccccc1S(=O)(=O)NC1CCCCC1`, the cell number change was -31.2%. Moreover, the AC50 under setting [2] is 0.103 µM [falling, full curve, poor fit]. Besides, the concentration at half-maximal activity (AC50) under setting [1] is 0.82 µM [falling, full curve, poor fit].
`CCCN1CCN(S(=O)(=O)c2ccc3c(c2)NC(=O)C(C)C(=O)N3)CC1` (configuration not stated): the cell number change came to 19%.
For the compound `CN(C)CCNc1oc(-c2ccccc2F)nc1C#N`, the cell number change is -39.2%. Besides, the AC50 under setting [2] was 16.4 µM [falling, partial curve, poor fit]. Also, the AC50 under setting [1] was 23.1 µM [falling, partial curve, poor fit].

The values above are taken from PubChem BioAssay AID2685 (National Center for Advancing Translational Sciences (NCATS), 2010).
